Each number is a percent effect as filed.
The controls that fix the scale are not given in the record; negative values are as filed.
The compounds are a random part of those screened.
Two or more numbers in one place are separate tests of the same structure; such repeats can differ widely.

Mtb glucose medium: 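Phenotypic screen: M. tuberculosis growth, glucose 7H9 medium, 3 days; the read-out is not stated. Tested at 50 µM. Direction is inferred from retests: higher values go with more growth inhibition. Size under these conditions: about 69,000 compounds, about 760 of them at 50% or above in at least one test.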
Mtb cholesterol medium: 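Phenotypic screen: M. tuberculosis growth, cholesterol and DPPC medium, 4 days; the read-out is not stated. Tested at 50 µM. Higher reads as more growth inhibition (inferred: compounds with an IC50 in retests scored well above the rest). Size under these conditions: about 69,000 compounds, about 370 of them at 50% or above in at least one test.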

| # | compound | Mtb glucose medium | Mtb cholesterol medium |
|---|---|---|---|
| 1 | `OCc1cnc(Nc2ccccc2)nc1` | -44.46 & -8.311 | -59.42 |
| 2 | `O=C(c1ccccc1)N1CCCN(C(=O)c2ncncc2Cl)CC1` | -18.58 | 6.415 |
| 3 | `COc1c(CNCc2ccnc(N3CCOCC3)c2)c(C)nn1C` | -31.19 | 2.005 |
| 4 | `COc1ccc2cc(C3CN(C(=O)CCNC(C)=O)CCO3)ccc2c1` (centres undefined) | -9.693 | 6.477 |
| 5 | `Cc1ncc2c(n1)CN(CC(=O)Nc1c(C)nn(C)c1C)CC2` | -16.43 | 6.331 |
| 6 | `O=C(CCc1ccncc1)NCCOc1ncc(Cl)cc1Cl` | -30.49 | 7.544 & 11.04 |
| 7 | `CCCc1nn(Cc2ccc(Br)s2)c(=O)o1` | 56.33 | 73.39 |
| 8 | `COc1cc2c(cc1CNCc1cccnc1OC)OC(C)C2` (centres undefined) | 1.373 & -13.57 | -10.62 |
| 9 | `Cc1cc(C)c(CNc2cnc3ccccc3n2)c(=O)[nH]1` | -13.15 | -15.04 |
| 10 | `Cc1nc(CN2CCCCC2Cn2cncn2)nc2ccccc12` (centres undefined) | -33.21 | 0.6812 |
| 11 | `Cc1ccc(Nc2ncnc3c2CCN(CC2CCOC2)CC3)cc1.O=C(O)C(F)(F)F` (centres undefined) | 24.33 | -9.705 |
| 12 | `O=C(O)C(F)(F)F.[H][C@@]12COC[C@]1(CNS(=O)(=O)CC)CN(Cc1cccc(OC)c1)C2` | -8.499 | 2.52 |
| 13 | `CC(=O)N(c1ccc(F)cc1)c1nc(CN2CCCC2C(C)C)cs1` (centres undefined) | 57.76 | 33.22 |
| 14 | `Cc1cc(NC(=O)CN2CCN(c3nccs3)C(C)C2)n(C)n1` (centres undefined) | 3.1 | -0.8285 |
| 15 | `CCCC(=O)N1CCC(Cc2ccccc2-c2ccccc2)(C(N)=O)C1` (centres undefined) | 8.367 | 22.76 |
| 16 | `CCc1cnc(N2CC3(CCN(Cc4ccsc4)C3)C2)nc1.O=C(O)C(F)(F)F` | -36.43 | -35.32 |
| 17 | `O=C(NC1CCCN(c2ccccc2F)C1)c1ccon1` (centres undefined) | -2.121 | 2.275 |
| 18 | `O=C(NCC1CCN(CCc2ccccc2)C1)c1c(F)cccc1F` (centres undefined) | -17.18 | -33.76 |
| 19 | `Cc1noc(C)c1CN(C)C(=O)C1CCN(S(N)(=O)=O)CC1` | -45.36 & 1.644 | -20.26 |
| 20 | `Cc1cccc(CN(C(=O)CCn2cncn2)C(C)C)c1` | 3.447 & 1.241 | 5.12 |
| 21 | `CC(C)N1CCC(Cc2cncc(-c3cccc(C(=O)O)c3)n2)CC1` | 13.26 | 22.73 |
| 22 | `Cc1nn(C)c(N(C)C)c1CNCc1ccccc1CO` | 8.574 | 3.934 |
| 23 | `CC(C)(C)c1n[nH]c(C2CN(C(=O)C3=COCCC3)CCO2)n1` (centres undefined) | 28.05 | -1.943 |
| 24 | `Cc1noc(NC(=O)c2ccccc2)n1` | -14.5 | -9.606 |
| 25 | `CCCC(O)CN1CCC(=O)N(CC)Cc2cc3c(cc21)OCO3` (centres undefined) | 8.331 | -1.584 |
| 26 | `Cc1nc(C)c(CNC[C@@]2(COc3cccnc3)C[C@@H](O)[C@@H](O)C2)s1.Cl.Cl` | 3.042 & -3.773 | -15.08 |
| 27 | `Cc1ncsc1C(=O)NCc1cccnc1N(C)CCc1ccccn1` | 31.46 | 27.77 |
| 28 | `OC1CCN(Cc2cc3c(cc2Br)OCCO3)CC1` | -4.756 & -10.22 | -13.94 |
| 29 | `Cn1ccnc1CN1CCCN(C(=O)COC2CCCCC2)CC1` | -17.89 | -34.65 |
| 30 | `Cc1nc(C2CCN(C(=O)c3cccnc3)CC2)c2sccn12` | -3.942 | -11.82 |
| 31 | `CNC(=O)[C@@H]1CN(C(=O)C2CCC2)C[C@H]1c1ccnc(N2CCCC2)n1.Cl` | -15.13 | 4.516 & 0.7164 |
| 32 | `N#CC1(C(=O)N2C[C@H](Nc3ncccn3)[C@@H](C3CC3)C2)CCOCC1` | -7.539 & -1.998 | 5.106 |
| 33 | `CCC(=O)N1CCN(C)C(=O)C(Cc2ccccc2-c2cccs2)C1` (centres undefined) | -5.219 | -0.348 |
| 34 | `CCc1nnc2n1CCN(C(=O)c1cn(-c3ccccc3)nn1)C2` | -6.463 | 5.998 |
| 35 | `CCCC(=O)N1CCC(C(=O)NCCNc2ncccn2)CC1` | -4.994 & -13.7 | 2.619 |
| 36 | `Fc1cccc(CN2CCN(Cc3cscn3)CC2)c1` | 7.953 | 30.23 |
| 37 | `[H][C@@]12CC[C@H](Oc3ccccc3)[C@]1([H])CN(C(=O)COCCOC)C2` | 14.12 | -0.1795 |
| 38 | `Cc1cccnc1CN1CCC2(CC(Nc3ccncn3)C2)C1` (centres undefined) | 18.68 | -4.01 |
| 39 | `CCCC(=O)NCC1CCCN(Cc2cc(C)c(C)o2)C1` (centres undefined) | -44.54 & -9.707 | -4.738 |
| 40 | `Fc1cnc(N2CCN(Cc3ccc(-c4cc[nH]n4)o3)CC2)nc1` | 10.47 | 5.949 & -2.453 |
| 41 | `O=C(c1ccco1)N1CCOCC2(C1)CN(c1ccoc1)C(=O)CO2` (centres undefined) | 11.4 | -23.23 |
| 42 | `CC(C)OCc1nn(C)c2c1CCN(CC1CC1)C2.O=C(O)C(F)(F)F` | -22.68 | -0.5514 |
| 43 | `CSc1ncc(C(=O)N(C)C(C)Cc2ccccn2)cn1` (centres undefined) | 5.623 | -1.833 |
| 44 | `CCc1nnc(N2CCN(c3ccccc3)C(=O)C2)o1` | 12.08 | 4.079 & -16.42 |
| 45 | `O=C(CC1CCN(c2cccnn2)CC1)Nc1cccnc1` | -14.09 | 5.601 |
| 46 | `O=c1ccn(Cc2nc(-c3ccccc3F)cs2)c(=O)[nH]1` | -4.691 & -7.145 | -5.829 |
| 47 | `[H][C@@]12CNC[C@]1([H])N(C(=O)c1ccoc1)CCO2` | -0.1747 | -10.67 |
| 48 | `Cc1noc(C(C)C)c1C(=O)NCc1ccc(N(C)C)c(F)c1` | -24.27 | 0.3576 |
| 49 | `CN1CCN(C(=O)CCn2c(C(F)(F)F)cc3cccnc32)CC1` | 2.135 | -31.81 |
| 50 | `CCCn1nccc1-c1cnc(CC2CCN(C(C)=O)C2)cn1` (centres undefined) | -9.718 | -1.359 |
| 51 | `[H][C@]12CCN(c3ncc(C)cn3)CC[C@@]1([H])S(=O)(=O)N(CCC(C)C)C2` | -3.614 & 26.94 | 19.71 |
| 52 | `CN(Cc1ccc(F)cc1)CC1(O)CCN(C(=O)c2cccn2C)C1` (centres undefined) | 6.186 | 3.132 |
| 53 | `CCC(O)CN1CCN(C(=O)c2csc(COC)n2)CC1` (centres undefined) | -9.257 & 6.676 | 12.11 |
| 54 | `Cc1c(C2SCC(=O)Nc3c2c(O)nn3C(C)C)cnn1C` (centres undefined) | 30.46 | 10.51 |
| 55 | `Cc1cncc(C2CCCN(CC3CCC3)C2)n1` (centres undefined) | 25.18 | 9.839 |
| 56 | `Cc1ccc(S(=O)(=O)NC(=O)COc2cccc(C#N)c2)c(C)c1` | -45.81 | -36.41 |

Repeated from the top, 3 entries:

compound,Mtb glucose medium,Mtb cholesterol medium
OCc1cnc(Nc2ccccc2)nc1,-44.46 & -8.311,-59.42
O=C(c1ccccc1)N1CCCN(C(=O)c2ncncc2Cl)CC1,-18.58,6.415
COc1c(CNCc2ccnc(N3CCOCC3)c2)c(C)nn1C,-31.19,2.005

Source: ChEMBL document CHEMBL3988442, “University of Dundee, Small-Polar-MMV Screening Library” (2021).